Reference: the supplement of paper PMC9744312
Structures can show the parent of a compound that is named as a salt. Some of the results follow. Single values of this set are uncertain.

These compounds were tested on Peyronie's disease tunica albuginea primary fibroblasts (assay: cell viability (DRAQ5 nuclear stain) relative to TGF-beta1-only control; higher = more viable cells). Settings: 10 µM; TGF-beta1 10 ng/mL; 72 h.
`Nc1nc(=O)n([C@@H]2CS[C@H](CO)O2)cc1F` [Emtricitabine] gave a cell viability of 92.9%.
Compound `COc1ccc(Cl)cc1C(=O)NCCc1ccc(S(=O)(=O)NC(=O)NC2CCCCC2)cc1` [Glyburide (Glibenclamide)] has a cell viability of 101%.
With `COC(=O)N[C@@H](C)CNc1nccc(-c2cn(C(C)C)nc2-c2cc(Cl)cc(NS(C)(=O)=O)c2F)n1` [Encorafenib (LGX818)] the cell viability was 67.8%.
`CC[C@@H]1C(=O)N(C)c2cnc(Nc3ccc(C(=O)N[C@H]4CC[C@H](N5CCN(CC6CC6)CC5)CC4)cc3OC)nc2N1C(C)C` [Volasertib (BI 6727)] showed a cell viability of 50.9%.
Compound `CC#C[C@]1(O)CC[C@H]2[C@@H]3CCC4=CC(=O)CCC4=C3[C@@H](c3ccc(N(C)C)cc3)C[C@@]21C` [Mifepristone] has a cell viability of 87%.
`[Cl][Mn][Cl]` [Manganese chloride] gave a cell viability of 89.2%.
Compound `Cc1nc(C(=O)NCC(=O)O)c(O)c2ccc(Oc3ccccc3)cc12` [Roxadustat (FG-4592)] has a cell viability of 87%.
`CCCCCCNC(=O)n1cc(F)c(=O)[nH]c1=O` [Carmofur] showed a cell viability of 64.3%.
`CCC[C@@H]1C[C@@H](C(=O)N[C@@H]([C@H]2O[C@H](SC)[C@H](OP(=O)(O)O)[C@@H](O)[C@H]2O)[C@H](C)Cl)N(C)C1` [Clindamycin Phosphate] gave a cell viability of 92.2%.
`N[C@H]1CONC1=O` [L-Cycloserine] was tested, and the cell viability was 93.7%.
`CNC(=O)c1ccc(N2C(=S)N(c3ccc(C#N)c(C(F)(F)F)c3)C(=O)C2(C)C)cc1F` [Enzalutamide (MDV3100)] was tested, and the cell viability was 57.6%.
`COc1cc2nc(N3CCN(C(=O)C4COc5ccccc5O4)CC3)nc(N)c2cc1OC` (centres undefined) [Doxazosin Mesylate] showed a cell viability of 86.5%.
`CCN(CCCCOC(=O)c1ccc(OC)c(OC)c1)C(C)Cc1ccc(OC)cc1` (centres undefined) [Mebeverine Hydrochloride] gave a cell viability of 85.4%.
`CCN(CC)C(=O)C1(c2ccccc2)CC1CN` (centres undefined) [Milnacipran HCl] was tested, and the cell viability was 95.1%.
In the case of `Cc1cc(C(C)(C)C)cc(C)c1CC1=NCCN1` [Xylometazoline HCl], the cell viability is reported as 83.2%.
For `CCN(CC)CCOCCOC(=O)C1(c2ccccc2)CCCC1` [Pentoxyverine Citrate], the cell viability was 93%.
For `CC#CCn1c(N2CCC[C@@H](N)C2)nc2c1c(=O)n(Cc1nc(C)c3ccccc3n1)c(=O)n2C` [Linagliptin], the cell viability was 88.2%.
Compound `NC[C@H]1O[C@H](O[C@H]2[C@H](O)[C@@H](O[C@H]3O[C@H](CO)[C@@H](O)[C@H](N)[C@H]3O)[C@H](N)C[C@@H]2N)[C@H](N)C[C@@H]1O` [Tobramycin sulfate] has a cell viability of 82.3%.
`NC[C@H]1O[C@H](O[C@H]2[C@H](O)[C@@H](O[C@H]3O[C@H](CO)[C@@H](O)[C@H](N)[C@H]3O)[C@H](N)C[C@@H]2N)[C@H](N)C[C@@H]1O` [Tobramycin] showed a cell viability of 97.6%.
In the case of `O=C(/C=C/c1cccc(S(=O)(=O)Nc2ccccc2)c1)NO` [Belinostat (PXD101)], the cell viability is reported as 31.3%.
`CC(C)(C)c1cc(NC(=O)Nc2ccc(-c3cn4c(n3)sc3cc(OCCN5CCOCC5)ccc34)cc2)no1` [Quizartinib (AC220)] showed a cell viability of 64.7%.
Work on `CCOC(=O)/C=C(C)/C=C/C=C(C)/C=C/c1c(C)cc(OC)c(C)c1C` [Etretinate] yielded a cell viability of 73.1%.
`CN(C)C(=N)NC(=N)N` [Metformin HCl] showed a cell viability of 103%.
Work on `NCCCCCC(=O)O` [(6-)ε-?Aminocaproic acid] yielded a cell viability of 94.3%.
Compound `CNCCc1ccccn1` [Betahistine 2HCl] has a cell viability of 92.1%.
For `CNCCc1ccccn1` [Betahistine], the cell viability was 86.3%.
For `CNCCc1ccccn1` [Betahistine mesylate], the cell viability was 89.1%.
`Nc1nc2c(ncn2COC(CO)CO)c(=O)[nH]1` [Ganciclovir] gave a cell viability of 89.4%.
Compound `Clc1cccc(Cl)c1NC1=NCCN1` [Clonidine HCl] has a cell viability of 95.3%.
`C[C@]12C=CC(=O)N[C@@H]1CC[C@@H]1[C@@H]2CC[C@]2(C)[C@@H](C(=O)Nc3cc(C(F)(F)F)ccc3C(F)(F)F)CC[C@@H]12` [Dutasteride] showed a cell viability of 75%.
With `CO[C@H]1/C=C/O[C@@]2(C)Oc3c(C)c(O)c4c(O)c(c5c(nc6cc(C)ccn65)c4c3C2=O)NC(=O)/C(C)=C\C=C\[C@H](C)[C@H](O)[C@@H](C)[C@@H](O)[C@@H](C)[C@H](OC(C)=O)[C@@H]1C` [Rifaximin] the cell viability was 90.3%.
Compound `CCCCCOc1ccccc1/C(=C\SC)n1ccnc1` [Neticonazole Hydrochloride] has a cell viability of 78.2%.
`Cc1cnc(Nc2ccc(OCCN3CCCC3)cc2)nc1Nc1cccc(S(=O)(=O)NC(C)(C)C)c1` gave a cell viability of 28.4%.
In the case of `Cc1cc(O)c(C(=O)N[C@@H](C(=O)N[C@@H]2C(=O)N3C(C(=O)O)=C(CSc4nnnn4C)CS[C@H]23)c2ccc(O)cc2)cn1` [Cefpiramide sodium], the cell viability is reported as 98.8%.
Work on `CCCNC(=O)NS(=O)(=O)c1ccc(Cl)cc1` [Chlorpropamide] yielded a cell viability of 97%.
`COc1ccc(Cl)c(Nc2nc3ccccc3nc2NS(=O)(=O)c2cccc(NC(=O)C(C)(C)N)c2)c1` [Pilaralisib (XL147)] gave a cell viability of 74.1%.
For `CC(=O)O[C@]1(C(C)=O)CC[C@H]2[C@@H]3C=C(Cl)C4=CC(=O)CC[C@]4(C)[C@H]3CC[C@@]21C` [Chlormadinone acetate], the cell viability was 101%.
For `CCS(=O)(=O)N1CC(CC#N)(n2cc(-c3ncnc4[nH]ccc34)cn2)C1`, the cell viability was 83.6%.
`Clc1ccc2c(c1)CCc1cccnc1C2=C1CCNCC1` [Desloratadine] was tested, and the cell viability was 86.9%.
`O=C1NCC2(CCN(CCc3ccccc3)CC2)O1` [Fenspiride HCl] gave a cell viability of 84.9%.
`CC1(C)OC[C@@H](COC(=O)CCc2ccc(OC[C@@H](O)CNCCNC(=O)N3CCOCC3)cc2)O1` [Landiolol hydrochloride] was tested, and the cell viability was 96.6%.
With `Cc1[nH]cnc1CN1CCc2c(c3ccccc3n2C)C1=O` [Alosetron Hydrochloride] the cell viability was 99.4%.
`O=C(c1ccc(F)cc1)C1CCN(CCn2c(=O)[nH]c3ccccc3c2=O)CC1` [Ketanserin] was tested, and the cell viability was 96.9%.
In the case of `COC(=O)C1=C(C)NC(C)=C(C(=O)OC(C)(C)CN(C)CCC(c2ccccc2)c2ccccc2)C1c1cccc([N+](=O)[O-])c1` (centres undefined) [Lercanidipine hydrochloride], the cell viability is reported as 74%.
Work on `O=c1[nH]c2ccccc2n1CCN1CCN(c2cccc(C(F)(F)F)c2)CC1` [Flibanserin] yielded a cell viability of 86.6%.
`c1ccc(-c2ccc(C(c3ccccc3)n3ccnc3)cc2)cc1` (centres undefined) [Bifonazole] gave a cell viability of 96.4%.
In the case of `Oc1c(Cl)cc(Cl)c2cccnc12` [Chloroxine], the cell viability is reported as 79.2%.
For `O=C1CC[C@@H](C(=O)N2CSC[C@H]2C(=O)O)N1` [Pidotimod], the cell viability was 85.6%.
For `CN(C)CCC(c1ccc(Br)cc1)c1ccccn1` (centres undefined) [Brompheniramine hydrogen maleate], the cell viability was 88.6%.
Work on `COc1cc(Nc2c(C#N)cnc3cc(OCCCN4CCN(C)CC4)c(OC)cc23)c(Cl)cc1Cl` [Bosutinib (SKI-606)] yielded a cell viability of 30.2%.
`COc1cccc2c1C(=O)c1c(O)c3c(c(O)c1C2=O)CC(O)(C(=O)CO)CC3OC1CC(N)C(O)C(C)O1` (centres undefined) [Doxorubicin (Adriamycin) HCl] was tested, and the cell viability was 43.6%.
Work on `CCCCCCCCCC(=O)N[C@@H](Cc1c[nH]c2ccccc12)C(=O)N[C@H](CC(N)=O)C(=O)N[C@@H](CC(=O)O)C(=O)N[C@@H]1C(=O)NCC(=O)N[C@@H](CCCN)C(=O)N[C@@H](CC(=O)O)C(=O)N[C@H](C)C(=O)N[C@@H](CC(=O)O)C(=O)NCC(=O)N[C@H](CO)C(=O)N[C@@H]([C@H](C)CC(=O)O)C(=O)N[C@@H](CC(=O)c2ccccc2N)C(=O)O[C@@H]1C` [Daptomycin] yielded a cell viability of 83.8%.
`CCC1(c2ccccc2)C(=O)NCNC1=O` [Primidone] showed a cell viability of 102%.
Compound `CCCCc1oc2ccc(NS(C)(=O)=O)cc2c1C(=O)c1ccc(OCCCN(CCCC)CCCC)cc1` [Dronedarone HCl] has a cell viability of 84.9%.
With `Nc1ncnc2c1ncn2[C@@H]1O[C@H](CO)[C@@H](O)[C@@H]1O` [Vidarabine monohydrate] the cell viability was 85.3%.
For `Nc1ncnc2c1ncn2[C@@H]1O[C@H](CO)[C@@H](O)[C@@H]1O` [Vidarabine], the cell viability was 90.6%.
`CCCCC(CC)COC(=O)CC(C(=O)OCC(CC)CCCC)S(=O)(=O)O` (centres undefined) [Docusate Sodium] was tested, and the cell viability was 91.6%.
For `CC[C@H](C)[C@H](N)C(=O)O` [isoleucine], the cell viability was 97.6%.
`NC(=O)[C@@H]1CSSCCC(=O)N[C@@H](CCCCN=C(N)N)C(=O)NCC(=O)N[C@@H](CC(=O)O)C(=O)N[C@@H](Cc2c[nH]c3ccccc23)C(=O)N2CCC[C@H]2C(=O)N1` [Eptifibatide Acetate] showed a cell viability of 99.9%.
Compound `C[C@@](Cc1ccc(O)c(O)c1)(NN)C(=O)O` [Carbidopa] has a cell viability of 83.2%.
In the case of `CCOc1nc2cccc(C(=O)O)c2n1Cc1ccc(-c2ccccc2-c2nnn[nH]2)cc1` [Candesartan], the cell viability is reported as 98.2%.
`Cn1c(=O)c2c(ncn2CC2OCCO2)n(C)c1=O` [Doxofylline] showed a cell viability of 97%.
In the case of `CN1CCN(CC(=O)N2c3ccccc3C(=O)Nc3cccnc32)CC1` [Pirenzepine dihydrochloride], the cell viability is reported as 94.7%.
Work on `CC(C)(C)c1cc(C(C)(C)C)c(NC(=O)c2c[nH]c3ccccc3c2=O)cc1O` [Ivacaftor (VX-770)] yielded a cell viability of 85.6%.
`Cc1ccc([C@@H]2O[C@H](CO)[C@@H](O)[C@H](O)[C@H]2O)cc1Cc1ccc(-c2ccc(F)cc2)s1` [Canagliflozin] gave a cell viability of 81.3%.
For `CCOC(=O)[C@H]1O[C@@H]1C(=O)N[C@@H](CC(C)C)C(=O)NCCC(C)C` [Aloxistatin], the cell viability was 92.9%.
Compound `CC(C)NCC(O)COc1ccc(CC(N)=O)cc1` (centres undefined) [Atenolol] has a cell viability of 84.4%.
In the case of `CC(C)Cn1cnc2c(N)nc3ccccc3c21` [Imiquimod], the cell viability is reported as 95.8%.
Compound `NC(=O)N1c2ccccc2CC(=O)c2ccccc21` [Oxcarbazepine] has a cell viability of 82.4%.
